Results taken from paper doi:10.1101/2024.02.06.579117.
No constants are given. Whether binding was seen depends on the method and setting. In cells and extracts the contact can be indirect. These calls come from enrichment with a bait or labelling near it, and not all partners need be listed.

Chains of the proteins cited; added tags and fusions are not shown. Lines headed by an entry give the natural chain unless they say otherwise; changes in a name come on top. Residues count along the entry.
UniProt Q15910: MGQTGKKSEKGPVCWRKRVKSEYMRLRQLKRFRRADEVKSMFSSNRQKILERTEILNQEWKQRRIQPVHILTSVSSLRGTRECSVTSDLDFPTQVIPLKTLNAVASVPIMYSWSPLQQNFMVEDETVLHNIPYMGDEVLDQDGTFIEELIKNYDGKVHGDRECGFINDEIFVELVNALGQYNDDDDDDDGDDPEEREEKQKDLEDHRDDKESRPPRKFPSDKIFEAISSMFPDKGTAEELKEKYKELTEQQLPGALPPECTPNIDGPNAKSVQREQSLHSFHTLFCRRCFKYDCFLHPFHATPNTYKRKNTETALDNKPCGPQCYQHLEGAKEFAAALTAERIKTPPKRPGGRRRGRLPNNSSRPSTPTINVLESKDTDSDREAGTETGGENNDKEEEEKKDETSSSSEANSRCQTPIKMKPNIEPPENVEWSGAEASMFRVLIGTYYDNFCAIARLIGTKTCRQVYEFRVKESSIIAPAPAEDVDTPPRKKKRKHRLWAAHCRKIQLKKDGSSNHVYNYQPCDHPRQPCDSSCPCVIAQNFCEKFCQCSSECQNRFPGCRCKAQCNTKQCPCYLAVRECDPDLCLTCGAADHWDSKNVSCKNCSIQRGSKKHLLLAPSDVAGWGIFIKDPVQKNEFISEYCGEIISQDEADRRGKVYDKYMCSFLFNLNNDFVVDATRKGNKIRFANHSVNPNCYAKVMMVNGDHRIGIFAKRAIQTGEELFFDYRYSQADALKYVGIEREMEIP
UniProt P28074: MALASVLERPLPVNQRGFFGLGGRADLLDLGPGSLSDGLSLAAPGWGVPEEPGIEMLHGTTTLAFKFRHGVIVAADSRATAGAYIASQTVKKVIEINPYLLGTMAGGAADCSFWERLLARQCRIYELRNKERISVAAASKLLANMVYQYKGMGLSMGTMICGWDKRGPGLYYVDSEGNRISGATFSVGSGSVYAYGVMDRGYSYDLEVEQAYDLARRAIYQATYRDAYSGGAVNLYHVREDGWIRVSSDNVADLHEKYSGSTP
UniProt P07339: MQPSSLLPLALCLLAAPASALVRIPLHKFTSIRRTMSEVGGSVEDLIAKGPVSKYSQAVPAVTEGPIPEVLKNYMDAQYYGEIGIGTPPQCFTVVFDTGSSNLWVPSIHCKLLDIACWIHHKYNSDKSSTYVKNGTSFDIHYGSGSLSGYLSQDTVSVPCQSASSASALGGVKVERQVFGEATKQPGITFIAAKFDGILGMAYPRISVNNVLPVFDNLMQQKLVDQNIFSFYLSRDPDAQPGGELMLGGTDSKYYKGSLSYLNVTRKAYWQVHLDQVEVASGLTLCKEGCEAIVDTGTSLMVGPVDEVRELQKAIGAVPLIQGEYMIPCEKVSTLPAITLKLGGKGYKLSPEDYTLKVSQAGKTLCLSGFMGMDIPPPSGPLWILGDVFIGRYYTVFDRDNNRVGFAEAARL
UniProt Q13510, residues 22-395: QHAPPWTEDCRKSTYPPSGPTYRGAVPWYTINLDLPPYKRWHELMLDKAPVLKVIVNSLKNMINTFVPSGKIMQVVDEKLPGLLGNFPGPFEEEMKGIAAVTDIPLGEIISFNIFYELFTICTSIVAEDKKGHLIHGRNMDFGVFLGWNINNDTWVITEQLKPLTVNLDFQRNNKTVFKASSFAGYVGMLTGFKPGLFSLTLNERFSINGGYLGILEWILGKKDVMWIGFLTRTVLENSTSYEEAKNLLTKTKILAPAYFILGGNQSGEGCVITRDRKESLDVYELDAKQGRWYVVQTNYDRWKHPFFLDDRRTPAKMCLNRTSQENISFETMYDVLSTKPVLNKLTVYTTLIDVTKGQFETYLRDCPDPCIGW

What follows are substances tested against Enhancer of Zeste Homolog-2 (EZH2) (human (endogenous in EA.hy926)) (UniProt Q15910) (assay: affinity purification with mass spectrometry).

binding	Substance
binds	proteasome subunit beta type-5 (from UniProt P28074)
binds	cathepsin D lysosomal protease (from UniProt P07339) (enzyme)
binds	lysosomal acid ceramidase (from UniProt Q13510 22-395) (enzyme)
